Substitutions are numbered along the chain they refer to. For at least one entry, the source does not settle the construct or the ends of the probe. The comparison behind a weaker result is the experiment's own reference, which may not be listed here. Protein sequences can lack the tags named with them. For some assays here: At least one verdict rests on a figure or table, not on a statement of the authors.

Five sequences from paper PMC8682772, “Negative feedback for DARS2–Fis complex by ATP–DnaA supports the cell cycle-coordinated regulation for chromosome replication” (Nucleic Acids Research, 2021) can be followed below.

In one data set the target is T1, DnaA (Escherichia coli) (UniProt P03004).
T1 sequence (looked up, limits assumed): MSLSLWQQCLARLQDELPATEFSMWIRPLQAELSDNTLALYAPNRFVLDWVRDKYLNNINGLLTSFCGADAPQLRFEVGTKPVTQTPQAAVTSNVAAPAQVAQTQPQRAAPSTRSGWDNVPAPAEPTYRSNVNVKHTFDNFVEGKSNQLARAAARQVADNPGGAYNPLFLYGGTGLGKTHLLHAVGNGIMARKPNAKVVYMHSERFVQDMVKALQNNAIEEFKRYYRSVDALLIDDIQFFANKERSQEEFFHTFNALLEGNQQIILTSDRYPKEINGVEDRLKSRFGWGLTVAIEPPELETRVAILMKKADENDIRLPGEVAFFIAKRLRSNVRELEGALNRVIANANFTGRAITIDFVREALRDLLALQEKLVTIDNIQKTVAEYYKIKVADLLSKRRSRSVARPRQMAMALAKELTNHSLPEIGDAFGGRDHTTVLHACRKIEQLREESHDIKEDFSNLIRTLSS
In words: EMSA. The settings on record: ATP, EMSA: 20 mM HEPES-KOH pH 7.6, 80 mM KCl, 1 mM EDTA, 4 mM DTT, 5 mM Mg acetate, 0.1 mg/ml BSA, 10% glycerol, 3 uM ATP or ADP, lambda-DNA competitor, 35 nM DNA, 30 C 5 min, recombinant protein. For orientation: A gel shift assay detects complexes by their altered migration in electrophoresis.

For data set [1], the target named is T2, DnaA R285A (Escherichia coli) (UniProt P03004).
T2 sequence (looked up, limits assumed): T1 sequence (looked up, limits assumed) with R285A
In words: EMSA. The settings on record: ATP, largely monomer, as ADP-DnaA; EMSA: 20 mM HEPES-KOH pH 7.6, 80 mM KCl, 1 mM EDTA, 4 mM DTT, 5 mM Mg acetate, 0.1 mg/ml BSA, 10% glycerol, 3 uM ATP or ADP, lambda-DNA competitor, 35 nM DNA, 30 C 5 min; recombinant protein.

Take “TCATTAACTGTGAATGATCGGTGATCCTGGACCGTATAAGCTGGGATCAGAATGA (double strand) [oriC R5MI2 WT]”: the binding result with DnaA (Escherichia coli) (reference for complexes up to C4) is on record as “binds”.

Take “GGGTTGGCGGGGGGCCGACCGGCGCCGCATTTATCCACAGAACGCGCCGCCA (double strand) [FBS2-5 subDnaA box V-abc]”: the binding result with DnaA (Escherichia coli) (no oligomers, box V binding retained) is “binds more weakly”.

With “GGGTTGGCGAAAGATCAACCAATGCCGTATTTATCCACAGAACGCGCCGCCA (double strand) [FBS2-5 subDnaA box V-a]”, in the data set with DnaA (Escherichia coli) (all oligomers considerably inhibited), the binding result is on record as “binds more weakly”.

Regarding “GGGTTGGCGAAAGATCAACCAATGCCGTATTTATCCACAGAATGTGCCACTA (double strand) [FBS2-5 WT]”, the binding result in data set [1] is “binds more weakly”.

For the sequence “GGGTTGGCGAAAGATCAACCGGCGCCGCATTTATCCACAGAATGTGCCACTA (double strand) [FBS2-5 subDnaA box V-b]”, the binding result in the data set with DnaA (Escherichia coli) (trimer formation considerably inhibited) is “binds more weakly”.
